Results as given in PubChem BioAssay AID2685 (National Center for Advancing Translational Sciences (NCATS), 2010).
The list shows a part of the results. These are further read-outs of the screen, such as a control signal, another cell line or another target. No call is given for them. Most of these compounds were active or inconclusive in the main read-out, so they are no random draw. Potencies come from curve fits of mixed quality, noted in brackets.

Assay: qHTS Assay for Lipid Storage Modulators in Drosophila S3 Cells;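 as to cell number change: cells counted by Cell Tracker Red CMTPX staining in the red channel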
Details: BODIPY lipid droplet fluorescence, 18-24 h; for cell number change: measured here: cell count max response, cells fed with added oleic acid
Method in brief: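 Drosophila S3 cells got compounds at several concentrations plus oleic acid (400 uM solution). Laser-scanning cytometry with 488 nm excitation read lipid droplets at 500-530 nm and cells at 575-640 nm. Percent activity was relative to 20 uM Triacsin C.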

[1] = measured here: cell number channel AC50, cells fed with added oleic acid
[2] = measured here: lipid fluorescence (Fed channel) AC50, cells fed with added oleic acid

| SMILES | cell number change [%] | AC50 [1] | AC50 [2] |
| --- | --- | --- | --- |
| CCCCCC(O)(c1ccc(OCC)cc1)C(CN1CCOCC1)c1ccccc1 (centres undefined) | 39 | 3.26 µM [rising, full curve] | 6.51 µM [rising, partial curve] |
| Cn1nnc(NC(=O)c2cccs2)n1 | -12.6 | 7.31 µM [falling, single point] |  |
| CN(CC#CC1(O)c2ccccc2-c2ccccc21)Cc1ccccc1 | 7.33 | 1.3 µM [falling, full curve, poor fit] | 0.82 µM [falling, single point] |
| COc1cc2c(cc1OC)C(C)N(C(=O)c1ccc(C)o1)CC2 (centres undefined) | 60.3 | 14.6 µM [rising, single point] |  |
| CC(C)CC(=O)N1CCN(C(=O)c2ccc(-c3ccccc3)cc2)CC1 | -19.3 |  | 29.1 µM [falling, single point] |
| CC1(C)CC(NC(=O)CC(c2ccccc2)c2ccccc2)CC(C)(C)N1 |  |  | 0.58 µM [rising, single point] |
| Cc1cc2cc(CCNC(=O)CCc3ccccc3)c(=O)[nH]c2cc1C | 18.9 |  |  |
| CN(C)CCCN(C(=O)c1ccc(S(=O)(=O)N2CCc3ccccc3C2)cc1)c1nc2ccc(F)cc2s1 | -36.6 | 13 µM [falling, single point] | 23.1 µM [falling, single point] |
| CCc1ccc(NC(=O)Cn2nc(C(=O)O)c3ccccc3c2=O)cc1 | 3.81 |  |  |
| Cc1cnc(NC(=O)COc2ccccc2)s1 | -19.8 |  | 1.46 µM [rising, partial curve, poor fit] |
| COc1ncnc2c1cnn2-c1ccccc1 | -21 | 0.13 µM [falling, full curve, poor fit] | 29.1 µM [falling, single point] |
| O=C(NCc1ccccn1)c1cccc(S(=O)(=O)N2CCCCC2)c1 | 3.28 |  | 18.4 µM [rising, single point] |
| CCOc1ccc(/C=N/NC(=O)CSc2ccccn2)cc1O | 23.4 |  | 1.03 µM [rising, partial curve] |
| N#Cc1cc2c(nc1SCC(=O)Nc1nccs1)CCCCC2 |  | 0.651 µM [rising, full curve] | 0.517 µM [rising, full curve] |
| CC1CCC/C(=N\NC(=S)NCc2ccccc2)C1 (centres undefined) | 29.5 |  |  |
| C/C(=N\NC(=O)CCC(=O)Nc1ccc(C)c(C)c1)c1cccs1 | -0.446 | 0.103 µM [falling, full curve, poor fit] |  |
| C/C(=N\N=C(N)N)c1ccc(Cl)cc1Cl |  | 0.291 µM [falling, partial curve] |  |
| CC(C)C(C)(C#N)NC(=O)CSc1ncnc2sc(-c3ccccc3)cc12 (centres undefined) | -13.5 |  | 0.82 µM [rising, single point] |
| CC1CCCC(C)N1CCCNC(=O)Cn1ncc2c([nH]c3ccccc32)c1=O (centres undefined) | 20 |  |  |
| O=C(C1CCN(S(=O)(=O)c2cccc3nsnc23)CC1)N1CCCCC1 | -9.43 |  | 6.51 µM [falling, single point] |

| SMILES | cell number change [%] | AC50 [1] | AC50 [2] |
| --- | --- | --- | --- |
| CCCCn1c(CCC(=O)O)nc2cc(S(=O)(=O)N(CC)CC)ccc21 | 15.1 |  | 29.1 µM [falling, single point] |
| COc1ccc(C(=O)OC(C)CN2CCN(C)CC2)cc1OC (centres undefined) | -1.94 |  | 6.51 µM [rising, single point] |
| C(=N\Nc1nncn1/N=C/c1ccco1)/c1ccco1 | 35.7 | 4.11 µM [rising, full curve, poor fit] | 23.1 µM [rising, single point] |
| CCOc1ccccc1NC(=O)C(Sc1ccccc1)c1ccccc1 (centres undefined) | -1.93 |  | 0.517 µM [falling, full curve] |
| COc1cccc(OC)c1C1=CC(=O)C[C@H](c2ccc3c(c2)OCO3)C1 |  | 1.3 µM [falling, partial curve] | 0.164 µM [falling, full curve, poor fit] |
| CCCN(CC(=O)Nc1ccccc1C)C(=O)c1ccc(C(=O)c2ccccc2)cc1 | 55.3 | 29.1 µM [rising, single point] |  |
| N#Cc1c2c(c(N3CCN(c4ccccn4)CC3)n3c1nc1ccccc13)CCC2 | 18 |  |  |
| O=C(Nc1ccc(N2CCN(C(=O)c3ccccc3F)CC2)cc1)c1cncc(Br)c1 | -34.9 | 16.4 µM [falling, single point] |  |
| Cc1ccc(C)c(N(C(=O)c2ccco2)C(C(=O)NC2CCCC2)c2ccco2)c1 (centres undefined) | -29.5 |  |  |
| Cc1cc(C(=O)C(C)OC(=O)c2ccc(NC(=O)CC#N)cc2)c(C)n1-c1ccccc1 (centres undefined) |  | 3.26 µM [rising, single point] | 2.59 µM [rising, single point] |
| Cc1cc(=O)oc2c(C)c(OC(C)C(=O)NCCCn3ccnc3)ccc12 (centres undefined) | 3.62 |  |  |
| Cc1ccc(C(C(=O)NC2CCCC2)N(C(=O)Cc2cccs2)c2ccc(C)c(C)c2)o1 (centres undefined) | 38.6 | 29.1 µM [rising, single point] | 29.1 µM [rising, single point] |
| CCOc1ccccc1NC(=O)CC1(CC(=O)N2CCOCC2)CCCC1 | 2.89 |  | 0.103 µM [falling, full curve, poor fit] |
| COc1ccc(C)cc1Nc1cc(C)nc2nc(C)nn12 | 30.4 | 29.1 µM [rising, single point] |  |
| O=C(NCCN1C(=O)C2C3C=CC(C3)C2C1=O)Nc1ccc(Br)cc1 (centres undefined) | 6.06 |  | 29.1 µM [rising, single point] |
| CCc1ccc(C(=O)N2CCN(S(=O)(=O)c3sc(C(=O)O)c(C)c3C(=O)O)CC2)cc1 | 36.9 | 23.1 µM [rising, partial curve] |  |
| COC(=O)c1ccc(CSc2nnc(-c3c[nH]c4ccccc34)n2-c2ccccc2)cc1 | -8.43 |  | 29.1 µM [falling, single point] |
| N#Cc1ccccc1NC(=O)COC(=O)CSc1nc2ccccc2o1 | -102 | 32.6 µM [falling, single point] |  |
| COc1ccc(-c2nc(CN3CCCCC3c3nccn3C)c(C)o2)c(C)c1C (centres undefined) | 12 |  |  |

2 compounds from above with just cell number change [%] and AC50 [1]:
SMILES	cell number change [%]	AC50 [1]
Cc1ccc(C(C(=O)NC2CCCC2)N(C(=O)Cc2cccs2)c2ccc(C)c(C)c2)o1 (centres undefined)	38.6	29.1 µM [rising, single point]
CCOc1ccccc1NC(=O)CC1(CC(=O)N2CCOCC2)CCCC1	2.89	
